# Measured values: article PMC7819943, “Rice protein-binding microarrays: a tool to detect cis-acting elements near promoter regions in rice”
# The list shows a part of the results.
# Target: T1, OsSMF1 (Oryza sativa, UniProt Q6ZLB0 1-436)
# T1 sequence: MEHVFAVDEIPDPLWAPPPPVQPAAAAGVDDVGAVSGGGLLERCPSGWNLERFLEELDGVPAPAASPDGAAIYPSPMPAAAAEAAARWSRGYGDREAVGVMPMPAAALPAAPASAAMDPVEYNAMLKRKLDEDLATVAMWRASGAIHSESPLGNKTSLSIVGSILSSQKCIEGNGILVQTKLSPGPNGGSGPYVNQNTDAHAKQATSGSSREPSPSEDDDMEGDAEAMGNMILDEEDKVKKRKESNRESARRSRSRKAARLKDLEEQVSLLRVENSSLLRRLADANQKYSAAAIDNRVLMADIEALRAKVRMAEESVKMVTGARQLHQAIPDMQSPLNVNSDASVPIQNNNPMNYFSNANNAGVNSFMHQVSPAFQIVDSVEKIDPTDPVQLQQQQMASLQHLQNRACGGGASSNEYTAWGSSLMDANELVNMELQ
# Assay: protein-binding microarray (RPBM); PBS, 2% BSA, 51.3 ng/ul salmon testes DNA, 50 uM zinc acetate, 200 nM TF, 25 C, 1 h; high values mean tight binding
# Details: protein: recombinant; tags: N-terminal polyhistidine and DsRed monomer fusion (pET32a); chain copies: 2; label: CyDye5-dUTP incorporated in the synthesized complementary strand; 3' TTTTT single-stranded linker to array surface; dsDNA, one strand shown
# Summary of the method: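 The binding signal for each feature is its fluorescence intensity in arbitrary units. An Axon 4000B scanner was used to read a custom Agilent array that had been made double-stranded with Cy5-dUTP primer extension, blocked with 2% BSA, incubated at 25 °C for 1 h with 200 nM protein in PBS, 2% BSA, salmon testes DNA and 50 µM zinc acetate, and washed. The protein was an N-terminal polyhistidine–DsRed transcription factor fusion from E. coli BL21-CodonPlus, purified on Ni–NTA.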
row,Sequence,binding signal
1,GGAGGGTGGGGTAGGAGAGGATGCGGCGGGCGCCATGGCTCGGAGTCACCTAGTGCAG,3450 fluorescence intensity (a.u.)
2,GGTATATCCCCGGCCGTCTGCCACCTACCATATGGCGTTGCGGAGTCACCTAGTGCAG,4060 fluorescence intensity (a.u.)
3,TCAAATACCTGCCCGTACCCATGGACAGGCCAAAAGTTCACGGAGTCACCTAGTGCAG,3660 fluorescence intensity (a.u.)
4,GTCACGATAGCCACGGTGCATGCGGAGGAGGCATATGACACGGAGTCACCTAGTGCAG,24900 fluorescence intensity (a.u.)
5,CCTCGTATGTCATGTTGTCTGGATCATCGTTATCATCCTGCGGAGTCACCTAGTGCAG,3160 fluorescence intensity (a.u.)
6,GCTGTTGGAGTGAGGAATGAGTTTGGTTTGCCAAATCAATCGGAGTCACCTAGTGCAG,6630 fluorescence intensity (a.u.)
7,AAACTCCCTCCTCTTCACTCCCAATCCGCCCTAAACGCCACGGAGTCACCTAGTGCAG,3160 fluorescence intensity (a.u.)
8,TATAATGTTTCATTAGGTAGTACCACCATAGTACTCCAAACGGAGTCACCTAGTGCAG,21400 fluorescence intensity (a.u.)
9,AAAATTCGAATCAGGCGGAGCCACCTCACCTCGCCGCGGCCGGAGTCACCTAGTGCAG,5020 fluorescence intensity (a.u.)
10,TTCCCCTCTTCTAGGTATTCGTGACTCGGTTGGCACAAATCGGAGTCACCTAGTGCAG,4720 fluorescence intensity (a.u.)
11,GTACAGAGGATCGGCGCCCACCACATCACCCATGTCCCAGCGGAGTCACCTAGTGCAG,6620 fluorescence intensity (a.u.)
12,CTATCTCACACGTCTCGCCTCTCTCCGCTTCGGCGCTTGGCGGAGTCACCTAGTGCAG,3410 fluorescence intensity (a.u.)
13,TTATGATCCAGGAATGGTGCACTGTGGTGAGTTGTGATGTCGGAGTCACCTAGTGCAG,3690 fluorescence intensity (a.u.)
14,GGCCTCCGCCGCACGCACCCTCCCCATCGTGGCGCGCGCCCGGAGTCACCTAGTGCAG,3750 fluorescence intensity (a.u.)
15,AAAATCTGTCATCGTCGTATCATGCATGTCGAATGTTTTGCGGAGTCACCTAGTGCAG,4380 fluorescence intensity (a.u.)
16,TGGCTAACTACTCAACATGCACTTGGTTCATTCGCCGTCACGGAGTCACCTAGTGCAG,3580 fluorescence intensity (a.u.)
17,CACCTTAAATTAGGTGACATCGGCCTATTTGAATTTGGCTCGGAGTCACCTAGTGCAG,3900 fluorescence intensity (a.u.)
18,GTACGTACGCAGGCCAAGCCGTCGTACACGTAACACGTCCCGGAGTCACCTAGTGCAG,6110 fluorescence intensity (a.u.)
19,CCATAATGCAGATTAATAAATATTGAGTGTATCCATCATACGGAGTCACCTAGTGCAG,5010 fluorescence intensity (a.u.)
20,CTGTTTGGTTGTGCAGAAGGTATATTGACCATGCAGGGTACGGAGTCACCTAGTGCAG,3530 fluorescence intensity (a.u.)
21,TGTACTTTTCCCAATCCCTAGTCATCCCTTTACTAGGCCCCGGAGTCACCTAGTGCAG,3270 fluorescence intensity (a.u.)

# Exported tab-delimited: part of the list above
row	Sequence	binding signal
7	AAACTCCCTCCTCTTCACTCCCAATCCGCCCTAAACGCCACGGAGTCACCTAGTGCAG	3160 fluorescence intensity (a.u.)
12	CTATCTCACACGTCTCGCCTCTCTCCGCTTCGGCGCTTGGCGGAGTCACCTAGTGCAG	3410 fluorescence intensity (a.u.)

# Continuation:

row,Sequence,binding signal
1,AAGCACCACCTCAGCGTGGACTAGATCTCCGGTTGGCTTACGGAGTCACCTAGTGCAG,3270 fluorescence intensity (a.u.)
2,TCGATCCTGATTGAACGGTCATGATTTATAAGTTCTATTTCGGAGTCACCTAGTGCAG,3350 fluorescence intensity (a.u.)
3,ATTTGTCTTATGTATATGCTGTATAGGATCTATGGACGCCCGGAGTCACCTAGTGCAG,3520 fluorescence intensity (a.u.)
4,AGATTATAGCTAAAATAAATCTTAGGTGGCAATGCCAAAACGGAGTCACCTAGTGCAG,3400 fluorescence intensity (a.u.)
5,TGTCCTTGTGGTGGTAAACCATTTGTTTAGCCCAGAAGCGCGGAGTCACCTAGTGCAG,28800 fluorescence intensity (a.u.)
6,TTGCGTTTATTTCATATCGTGAGCAATGGTGTGACATTGGCGGAGTCACCTAGTGCAG,3600 fluorescence intensity (a.u.)
7,TGGACGGAGGTAGTAACCGTGTCATCAACCATATTGCGCCCGGAGTCACCTAGTGCAG,3510 fluorescence intensity (a.u.)
8,GCATTGTGTATTTGTGTGTTACTGTATTTAGTGATAAACCCGGAGTCACCTAGTGCAG,22600 fluorescence intensity (a.u.)
9,TTATACTATATTATCCTTCCTCTCCCATGTATTGAGGGTGCGGAGTCACCTAGTGCAG,3610 fluorescence intensity (a.u.)
10,GGCGGAAGAGGACGCGGTTCGTGCGTGCGCCACCGTCGGCCGGAGTCACCTAGTGCAG,3520 fluorescence intensity (a.u.)
11,GTAACTTCAAGCTTGTTGAGTGAGTTGTACTGTTACTGTTCGGAGTCACCTAGTGCAG,3510 fluorescence intensity (a.u.)
12,ATGTGAGTCCTATGAGCGTCACGTAGGATGAAACCGCTATCGGAGTCACCTAGTGCAG,5270 fluorescence intensity (a.u.)
13,CACGACGAGCCGATTTGTGTCACAATGTCTCACATCCGAACGGAGTCACCTAGTGCAG,26800 fluorescence intensity (a.u.)
14,TATCCACTCCCACCGCGCGCGCCACCTGTACAAGAGAAAACGGAGTCACCTAGTGCAG,3700 fluorescence intensity (a.u.)
15,TCTTTGGACACGTGTATGAAGCATTAAATATAGATAAATACGGAGTCACCTAGTGCAG,7610 fluorescence intensity (a.u.)
16,GATATACACATTGACAAGGGCAGTATGCACGTAGGTCTGGCGGAGTCACCTAGTGCAG,3270 fluorescence intensity (a.u.)
17,CCGTTGATCCAAAACTGATTTAACTCGATCTCACCATACACGGAGTCACCTAGTGCAG,26200 fluorescence intensity (a.u.)
18,AAACCACGGCATTTTCCTCGCTCCCTTCTCTTCTTCCTTTCGGAGTCACCTAGTGCAG,3150 fluorescence intensity (a.u.)
19,TGGCGCCACCTAGGAGAGGGGTATGGTGACGAGGCGTGCGCGGAGTCACCTAGTGCAG,6620 fluorescence intensity (a.u.)
20,CTTTGGAGTTTGATCCATGGGATGAGTCATATTCAACGGCCGGAGTCACCTAGTGCAG,6740 fluorescence intensity (a.u.)
21,CCCCTCAGGAAGGGTGTCAACTCTCTTGTCATCATGGTTACGGAGTCACCTAGTGCAG,3180 fluorescence intensity (a.u.)
